# From PubChem BioAssay AID901 (National Center for Advancing Translational Sciences (NCATS), 2007)
# The other results are listed elsewhere or left out. Shown are side measurements of this screen, not its main read-out; they come without a call. Most of these compounds were active or inconclusive in the main read-out, so they are no random draw. Potencies come from curve fits of mixed quality, noted in brackets.
# Assay: qHTS Assay for Identifying the Cell-Membrane Permeable IMPase Inhibitors
# Details: CHO-M1 cells, IP1 accumulation, HTRF TR-FRET ratio; measured here: donor channel 620 nm AC50
row,SMILES,AC50
1,Cn1c2c(c(=O)n(C)c1=O)C(c1ccccc1OC(F)F)C1=C(CCCC1=O)N2 (stereo not drawn),"31.6 µM [falling, single point]"
2,COc1ccccc1C(=O)NCCc1nc2ccccc2[nH]1,"0.794 µM [falling, full curve, poor fit]"
3,Cc1ccc(-c2[nH]c(=O)n3ccncc23)s1,"20 µM [falling, single point]"
4,O=C(Nc1cc2c(cc1Br)OCCO2)c1ccco1,"0.251 µM [falling, full curve]"
5,Cc1ccc(C(=O)/C=C2/NC(=O)CS2)cc1,"0.251 µM [rising, single point]"
6,CC(C)n1c(SCc2ccc(Cl)cc2)nc2c1c(=O)[nH]c(=O)n2C,"15.8 µM [falling, partial curve, poor fit]"
7,O=C(NCc1nc(-c2ccccc2)no1)c1cccs1,"25.1 µM [falling, partial curve]"
8,COc1ccc(C(=O)N(CC2CCCO2)C(C(=O)NC2CCCC2)c2ccc(Cl)cc2)cc1OC (stereo not drawn),"0.158 µM [falling, partial curve]"
9,Cc1cc(C)c(C#N)c(SCC2COc3ccccc3O2)n1 (stereo not drawn),"6.31 µM [falling, full curve, poor fit]"
10,c1ccc(CSc2n[nH]c(-c3ccco3)n2)cc1,"3.55 µM [falling, single point]"
11,O=C(CSc1nnc(CNc2ccc(F)cc2)n1Cc1ccco1)N1CCOCC1,"1 µM [falling, full curve, poor fit]"
12,CCc1c(C)c2cc(Cl)c(O)c(CN(C)C)c2oc1=O,"3.16 µM [rising, single point]"
13,COC(=O)CCN(C)CCC(=O)OC,"0.01 µM [falling, full curve, poor fit]"
14,COc1ccc(Cl)cc1-n1c(=S)sc2c(=O)[nH]c(SCC(=O)NCC3CCCO3)nc21 (stereo not drawn),"0.158 µM [falling, full curve, poor fit]"
15,CSCCC(NC(=O)c1ccco1)C(=O)OCC(=O)Nc1sccc1C#N (stereo not drawn),"0.0316 µM [rising, full curve, poor fit]"
16,Cc1cc(=S)cc(C)n1CCCO,"0.316 µM [rising, full curve, poor fit]"
17,Nn1c(SCc2cccc3ccccc23)nnc1-c1ccco1,"0.01 µM [rising, full curve, poor fit]"
18,CCS(=O)(=O)N1CCN(S(=O)(=O)c2ccc(F)cc2)CC1,"1 µM [falling, full curve]"
19,CCCCCCCCN=C1NC(=O)CS1,"3.16 µM [falling, single point]"
20,COc1ccc(OC)c(NC(=O)C2C3C=CC(C3)C2C(=O)NCc2ccccn2)c1 (stereo not drawn),"31.6 µM [falling, single point]"
21,CC1(C)N=C(c2ccc(Cl)cc2Cl)C(=O)N1,"0.0126 µM [rising, full curve, poor fit]"
22,CC(C)(C)C1CCc2c(sc(NC(=O)C3CCCO3)c2C(N)=O)C1 (stereo not drawn),"12.6 µM [rising, single point]"
23,COc1ccc(CN(Cc2ccccn2)C(=O)CN2C(=O)C(C)Oc3ccccc32)cc1 (stereo not drawn),"3.16 µM [rising, full curve]"

row,SMILES,AC50
1,COc1cccc(C2CC(C(F)(F)F)n3ncc(C(=O)Nc4c(C)n(C)n(-c5ccccc5)c4=O)c3N2)c1 (stereo not drawn),"3.98 µM [falling, partial curve, poor fit]"
2,Cc1ccc(O)c(N=CC2=C(O)c3ccccc3C2=O)c1,"10 µM [rising, partial curve]"
3,CC1CCc2c(sc3nn[nH]c(=O)c23)C1 (stereo not drawn),"12.6 µM [falling, partial curve, poor fit]"
4,O=C(COc1cc(O)c2c(=O)cc(-c3ccccc3)oc2c1)c1ccc(F)cc1,"6.31 µM [rising, full curve]"
5,O=C1c2c(O)ccc(O)c2C(=O)c2c(NCCNCCO)ccc(NCCNCCO)c21,"10 µM [falling, partial curve]"
6,O=C1c2ccccc2-c2c1cccc2C(=O)N(CCO)CCO,"0.0501 µM [falling, full curve]"
7,O=C(CSc1nnc(-c2cccnc2)n1-c1ccccc1)Nc1ccccn1,"5.01 µM [falling, single point]"
8,CCC(C(=O)Nc1ncn[nH]1)(C(F)(F)F)C(F)(F)F,"0.0316 µM [rising, full curve, poor fit]"
9,O=C1CC(c2cccnc2)c2cc3c(cc2N1)OCO3 (stereo not drawn),"3.16 µM [falling, partial curve]"
10,O=C(CSc1ccc2nnc(-c3ccc(Cl)cc3)n2n1)N1CCCC1,"31.6 µM [rising, single point]"
11,Cc1sccc1C1C(C#N)=C(N)SC(N)=C1C#N,"10 µM [rising, partial curve, poor fit]"
12,CCc1ccc(NC(=O)CSc2nc3cc(C(=O)OC)ccc3c(=O)n2Cc2ccco2)cc1,"3.98 µM [rising, partial curve, poor fit]"
13,COc1ccc(NC(=O)CSc2ccccn2)cc1,"0.02 µM [falling, full curve, poor fit]"
14,O=C1CC(c2ccc3c(c2)OCO3)C2=C(CCCC2=O)N1 (stereo not drawn),"3.16 µM [falling, full curve]"
15,COc1ccc(OC)c(S(=O)(=O)NC2CCN(Cc3ccccc3)CC2)c1,"35.5 µM [falling, single point]"
16,Cc1cc2cc(CNC(=O)C3CC3)ccc2n1C,"0.0126 µM [rising, full curve, poor fit]"
17,COc1ccc(-n2ncc3c(=O)n(CC(=O)N4c5ccccc5CC4C)cnc32)cc1 (stereo not drawn),"20 µM [rising, partial curve]"
18,CCOC(=O)C1Cc2c([nH]c3ccccc23)C(C)N1 (stereo not drawn),"1.26 µM [falling, full curve, poor fit]"
19,C=CCn1c(SCC(=O)Nc2cc(NC(C)=O)ccc2OC)nnc1-c1ccccn1,"25.1 µM [falling, single point]"
20,COC(=O)c1ccccc1NC(=O)Cn1c(=O)n(CCCC(=O)NCc2ccccc2Cl)c(=O)c2ccccc21,"4.47 µM [rising, partial curve, poor fit]"
21,COc1cccc(N=c2oc3ccc(OC)cc3cc2-c2nc3ccccc3[nH]2)c1,"0.00316 µM [falling, full curve, poor fit]"
22,Cc1ccc(NC(=O)c2sc3ccccc3c2Cl)nc1,"0.631 µM [rising, single point]"
23,CCOc1ccc(OCC)c(NC(=O)CNS(=O)(=O)c2cccs2)c1,"15.8 µM [falling, partial curve, poor fit]"

# Pulled one by one from above (three):
row,SMILES,AC50
19,C=CCn1c(SCC(=O)Nc2cc(NC(C)=O)ccc2OC)nnc1-c1ccccn1,"25.1 µM [falling, single point]"
15,COc1ccc(OC)c(S(=O)(=O)NC2CCN(Cc3ccccc3)CC2)c1,"35.5 µM [falling, single point]"
21,CC1(C)N=C(c2ccc(Cl)cc2Cl)C(=O)N1,"0.0126 µM [rising, full curve, poor fit]"

# Rewritten bar-delimited: 2 of the compounds above.
row | SMILES | AC50
19 | C=CCn1c(SCC(=O)Nc2cc(NC(C)=O)ccc2OC)nnc1-c1ccccn1 | 25.1 µM [falling, single point]
20 | COC(=O)c1ccccc1NC(=O)Cn1c(=O)n(CCCC(=O)NCc2ccccc2Cl)c(=O)c2ccccc21 | 4.47 µM [rising, partial curve, poor fit]

# Later entries.

row,SMILES,AC50
1,Cn1c(COc2ccc3ccccc3c2)nnc1SCC(N)=O,"0.158 µM [falling, full curve, poor fit]"
2,CCCCOC(=O)C1=C(C)Nc2ncnn2C1c1cc(OC)c(OC)cc1OC (stereo not drawn),"6.31 µM [rising, partial curve, poor fit]"
3,Cc1ccc(NC(=O)CCSc2nc(-c3ccc4c(c3)OCO4)cc(C(F)(F)F)n2)c(C)c1,"20 µM [rising, partial curve]"
4,Cc1csc(SCC(=O)NC(=O)NCc2ccccc2)n1,"0.251 µM [falling, full curve, poor fit]"
5,CCOc1ccc(OCC)c(NC(=O)C2CCCN(S(=O)(=O)c3c(C)noc3C)C2)c1 (stereo not drawn),"0.0126 µM [rising, full curve, poor fit]"
6,Cc1csc(=NC(=O)c2ccccc2)n1C,"0.251 µM [falling, single point]"
7,O=C(O)CS(=O)(=O)CC(=O)O,"0.282 µM [falling, full curve, poor fit]"
8,CCc1ccc(C2=NN(c3ccc(S(N)(=O)=O)cc3)C(c3ccc(F)cc3)C2)cc1 (stereo not drawn),"15.8 µM [rising, single point]"
9,CCOc1ccccc1/C=C(/NC(=O)c1ccccc1)C(=O)NCC(=O)O,"0.00501 µM [falling, full curve, poor fit]"
10,CCC1(COC(=O)Nc2cccc(Cl)c2)COC1,"0.141 µM [falling, full curve, poor fit]"
11,c1ccc(CNc2nc(N3CCOCC3)nc(N3CCOCC3)n2)cc1,"0.2 µM [rising, single point]"
12,Oc1cnc2ccccc2c1CN1CCOCC1,"25.1 µM [rising, partial curve, poor fit]"
13,CCc1c(C)c2ccc(O)c(CN(C)C)c2oc1=O,"12.6 µM [rising, single point]"
14,Cc1nc2ccc(S(=O)(=O)NC(C(=O)NCc3cccs3)C(C)C)cc2s1 (stereo not drawn),"31.6 µM [falling, single point]"
15,CC(Oc1ccccc1F)C(=O)Nc1ccc2ccccc2c1 (stereo not drawn),"1 µM [falling, full curve]"
16,CC1=CC(c2ccccc2)n2nc(N3C(=O)CCC3=O)nc2N1 (stereo not drawn),"6.31 µM [falling, single point]"
17,COCCn1c(Cc2ccccc2)nnc1SCC(=O)N(C)C,"0.141 µM [rising, partial curve]"
18,O=C(O)CSc1ccc2ccccc2n1,"25.1 µM [rising, single point]"
19,O=S(=O)(c1cccc2cccnc12)n1cnc2ccccc21,"5.62 µM [falling, single point]"
20,Cc1ccc(C)c(N2CCN(C(=O)Cc3cn(C)c4ccccc34)CC2)c1,"12.6 µM [falling, partial curve, poor fit]"
21,CC1CN(Cc2ccccc2Cl)CC(C)O1 (stereo not drawn),"2.51 µM [rising, single point]"
22,O=C(O)CNC(=O)CCN1C(=O)c2ccccc2C1=O,"10 µM [falling, single point]"
